Literature values in patent US5645852A, “Butyric ester cyto-differtiating agents” (Sloan-Kettering Institute for Cancer Research, priority 1995, dated 1997).
Read-outs that look alike come from different tables or passages of the source. The name of at least one read-out is uncertain.

Assays:
[1] = intravenous infusion, 500 mg/kg per day; read-out: peak blood levels; cited from earlier work
[2] = continuous intravenous infusions, 500 mg/kg/day or higher, several days; read-out: blood levels of butyrate; cited from earlier work

## CCCC(=O)[O-].[Na+] [sodium butyrate]
[1]
  Cmax: < 50 µM
[2]
  Cmax: ≤ 50 µM
